PubChem BioAssay AID652243, Drosophila RNAi Screening Center – 2013
The screen tested about 24,000 reagents; shown is a random part of those with a known target gene and a result. In the full data, 246 (1%) got an active call. 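Plates not normalised; calls are printed but the firefly/Renilla ratio behind them is not deposited; fold cut for lowering reported inconsistently.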 Raw values are not corrected between plates. Reagents against one gene are numbered here. A plus sign joins genes that one reagent is predicted to hit. No sequences are given here. Not given: the amount of reagent.

Purpose: 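Fly genes required for human androgen receptor driven transcription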 (primary screen)
Cell system: Drosophila S2R+ cells
Knock-down reagent: long dsRNA against Drosophila genes
Time to read-out: 72 h (48 h, then 24 h hormone)
Conditions: synthetic androgen R1881 at 10 nM for 24 h
Measured: 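Per-well raw luminescence of the androgen-driven firefly reporter and of the Renilla control, two replicates each, without normalisation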
Reading the numbers: firefly reporter light: higher = more light from androgen-responsive reporter; Renilla control light: higher = more constitutive control signal (cell number, transfection)
Rule for the call: 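Across duplicate plates, a knock-down whose log firefly/Renilla ratio shifted a set fold down or up from the GFP/LacZ control mean was a hit; the downward cut appears as both 1.5 and 3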
Meaning of the calls: active = hit: reporter lowered or raised; inactive = no hit

gene knocked down | dsRNA no. | firefly reporter light, replicate 1 | firefly reporter light, replicate 2 | Renilla control light, replicate 1 | Renilla control light, replicate 2 | activity call
CG13255 | 1 | 2.07e5 | 2.30e5 | 2.57e6 | 2.49e6 | inactive
CG14626 | 1 | 1.67e5 | 1.37e5 | 2.39e6 | 1.69e6 | inactive
CG14626 | 2 | 1.92e5 | 2.10e5 | 2.38e5 | 5.74e5 | inactive
CG34310 | 1 | 9.05e5 | 1.04e6 | 2.02e6 | 2.07e6 | inactive
synr (sayonara) | 1 | 2.16e5 | 2.01e5 | 2.81e6 | 1.81e6 | inactive
CG12708 + CG15646 | 1 | 8.06e5 | 5.58e5 | 1.06e6 | 7.99e5 | inactive
sei (seizure) | 1 | 5.55e5 | 8.05e5 | 8.27e5 | 1.06e6 | inactive
sei (seizure) | 2 | 4.56e5 | 4.86e5 | 1.29e6 | 1.29e6 | inactive
TTLL1B (Tubulin tyrosine ligase-like 1B) | 1 | 1.25e5 | 1.18e5 | 1.40e6 | 1.90e6 | inactive
CG7840 | 1 | 9.24e5 | 1.01e6 | 2.52e6 | 2.52e6 | inactive
asf1 (anti-silencing factor 1) | 1 | 88080 | 72756 | 3.51e5 | 3.31e5 | inactive
asf1 (anti-silencing factor 1) | 2 | 1.38e6 | 2.05e6 | 8.92e5 | 9.08e5 | inactive
yps (ypsilon schachtel) | 1 | 1.87e5 | 2.47e5 | 6.85e5 | 4.82e5 | inactive
abd-A (abdominal A) | 1 | 18780 | 19982 | 1.17e5 | 1.02e5 | inactive
abd-A (abdominal A) | 2 | 7.29e5 | 9.70e5 | 1.67e6 | 1.74e6 | inactive
abd-A (abdominal A) | 3 | 5.44e5 | 4.54e5 | 1.67e6 | 1.32e6 | inactive
CG6484 | 1 | 1.59e6 | 1.48e6 | 2.89e6 | 2.43e6 | inactive
CG6484 | 2 | 5.41e5 | 4.72e5 | 1.84e6 | 1.56e6 | inactive
CG8236 | 1 | 1.43e5 | 93866 | 1.87e6 | 1.75e6 | inactive
CG8236 | 2 | 2.05e5 | 2.24e5 | 4.81e5 | 5.07e5 | inactive
CG10479 | 1 | 8.65e5 | 7.83e5 | 7.43e5 | 1.01e6 | inactive
CG42500 | 1 | 1.54e5 | 1.59e5 | 2.61e6 | 2.81e6 | inactive
CG11808 | 1 | 6.64e5 | 7.89e5 | 1.02e6 | 1.19e6 | inactive
CG11808 | 2 | 4.01e5 | 3.27e5 | 7.72e5 | 7.69e5 | inactive
CG12912 | 1 | 2.96e5 | 2.97e5 | 1.17e6 | 8.39e5 | inactive
TotM (Turandot M) | 1 | 1.72e5 | 1.35e5 | 1.41e6 | 1.32e6 | inactive
CG15543 | 1 | 2.07e5 | 1.73e5 | 1.74e6 | 2.13e6 | inactive
Gr23a (Gustatory receptor 23a) | 1 | 2.37e5 | 1.94e5 | 6.05e5 | 4.01e5 | inactive
Scsalpha2 (Succinyl-coenzyme A synthetase alpha subunit 2) | 1 | 1.15e5 | 86209 | 8.53e5 | 7.85e5 | inactive
DCTN5-p25 (Dynactin 5, p25 subunit) | 1 | 2.19e5 | 1.97e5 | 1.91e6 | 2.04e6 | inactive
DCTN5-p25 (Dynactin 5, p25 subunit) | 2 | 3.30e5 | 3.34e5 | 8.59e5 | 8.35e5 | inactive
Tctp (Translationally controlled tumor protein) | 1 | 1.86e5 | 1.94e5 | 2.60e6 | 3.02e6 | inactive
Tctp (Translationally controlled tumor protein) | 2 | 5.02e5 | 4.03e5 | 1.10e6 | 1.08e6 | inactive
Rab7 | 1 | 1.17e5 | 74207 | 4.97e5 | 4.41e5 | inactive
CG5611 | 1 | 1.93e5 | 1.94e5 | 1.99e6 | 3.15e6 | inactive
CG3808 | 1 | 1.28e5 | 2.50e5 | 9.08e5 | 2.28e6 | inactive
CG10943 | 1 | 2.07e5 | 2.09e5 | 2.02e6 | 1.56e6 | inactive
CG10943 | 2 | 4.90e5 | 6.70e5 | 2.25e6 | 1.55e6 | inactive
CG11373 | 1 | 87779 | 96879 | 1.30e6 | 1.10e6 | inactive
tok (tolkin) | 1 | 56207 | 75921 | 4.83e5 | 4.79e5 | inactive
tok (tolkin) | 2 | 5.02e5 | 7.19e5 | 1.36e6 | 1.57e6 | inactive

6 entries from above, reduced to “firefly reporter light, replicate 2”.
CG8236 #2: 2.24e5
CG10479: 7.83e5
CG42500: 1.59e5
CG11808 #1: 7.89e5
CG11808 #2: 3.27e5
CG12912: 2.97e5
